Measurements from patent US20230175069A1, “COMPOSITIONS AND METHODS FOR DETECTING GENE FUSIONS OF ESR1 AND CCDC170 FOR DETERMINING INCREASED RESISTANCE TO ENDOCRINE THERAPY AND FOR CANCER TREATMENT” (UNIVERSITY OF PITTSBURGH-OF THE COMMONWEAL TH SYSTEM OF …, priority 2020, published 2023).
No constants are given. Whether binding was seen depends on the method and setting. For some of these results: Binding seen in cells or lysates may run through a third protein. Some entries that bind do so weakly or less than the wild type. Tags and fused reporters may be left off the sequences shown.

Amino acid sequences for entries named in this document (tags omitted). A change or cut given only in a name is not applied to a line headed by its entry.
UniProt P21860: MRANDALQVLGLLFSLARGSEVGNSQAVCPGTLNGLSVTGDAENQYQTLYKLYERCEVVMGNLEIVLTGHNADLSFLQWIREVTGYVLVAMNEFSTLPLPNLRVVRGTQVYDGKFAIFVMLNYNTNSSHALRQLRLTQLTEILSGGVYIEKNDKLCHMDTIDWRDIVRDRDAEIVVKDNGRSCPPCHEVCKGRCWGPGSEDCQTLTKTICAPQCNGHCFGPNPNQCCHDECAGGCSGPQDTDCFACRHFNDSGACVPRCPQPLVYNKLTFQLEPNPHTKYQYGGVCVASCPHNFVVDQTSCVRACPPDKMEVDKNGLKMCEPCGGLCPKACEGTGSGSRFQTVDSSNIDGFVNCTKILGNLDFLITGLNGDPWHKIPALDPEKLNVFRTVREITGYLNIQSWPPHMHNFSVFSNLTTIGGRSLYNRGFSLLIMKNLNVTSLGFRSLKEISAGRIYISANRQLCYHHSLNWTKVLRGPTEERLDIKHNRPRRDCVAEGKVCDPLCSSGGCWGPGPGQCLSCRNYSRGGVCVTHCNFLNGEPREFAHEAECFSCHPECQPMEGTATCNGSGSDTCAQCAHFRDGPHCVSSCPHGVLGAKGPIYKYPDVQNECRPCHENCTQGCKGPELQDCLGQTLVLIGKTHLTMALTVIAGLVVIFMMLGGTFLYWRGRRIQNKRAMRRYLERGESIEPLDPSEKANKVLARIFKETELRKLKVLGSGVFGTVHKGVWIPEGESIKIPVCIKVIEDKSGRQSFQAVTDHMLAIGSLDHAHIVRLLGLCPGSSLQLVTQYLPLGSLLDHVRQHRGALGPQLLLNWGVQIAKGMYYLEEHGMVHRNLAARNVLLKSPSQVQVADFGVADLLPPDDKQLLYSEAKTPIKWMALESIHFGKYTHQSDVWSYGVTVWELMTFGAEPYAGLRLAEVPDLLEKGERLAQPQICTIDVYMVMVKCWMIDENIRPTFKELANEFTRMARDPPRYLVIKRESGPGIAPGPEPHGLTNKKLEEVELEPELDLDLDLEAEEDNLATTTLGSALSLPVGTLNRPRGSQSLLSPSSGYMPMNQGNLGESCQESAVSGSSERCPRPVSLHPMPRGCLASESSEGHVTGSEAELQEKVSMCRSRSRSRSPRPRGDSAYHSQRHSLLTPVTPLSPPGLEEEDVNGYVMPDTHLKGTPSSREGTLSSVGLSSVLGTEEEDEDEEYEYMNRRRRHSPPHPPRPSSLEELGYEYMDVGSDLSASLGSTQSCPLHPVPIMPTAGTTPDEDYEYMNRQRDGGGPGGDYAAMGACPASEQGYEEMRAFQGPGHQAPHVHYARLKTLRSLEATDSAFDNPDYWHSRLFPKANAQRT

T1: Yc-E2-E10 (E2-E10 ORF fused to a C-terminal fragment of YFP) (human) (UniProt Q8IYT3)
T1 sequence: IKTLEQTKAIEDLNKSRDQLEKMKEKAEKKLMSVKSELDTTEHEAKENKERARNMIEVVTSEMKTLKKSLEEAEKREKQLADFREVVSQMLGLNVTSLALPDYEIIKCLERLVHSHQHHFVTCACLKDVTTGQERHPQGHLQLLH


Experiments:
[1] = target: T1, Yc-E2-E10 (E2-E10 ORF fused to a C-terminal fragment of YFP) (human); assay: BiFC assay of Yn- and Yc-tagged E2-E10 in HT1080 cells, flow cytometry (FIG. 7C)
[2] = target: T1, Yc-E2-E10 (E2-E10 ORF fused to a C-terminal fragment of YFP) (human); assay: Bimolecular Fluorescence Complementation (BiFC) in co-transfected HT1080 cells, YFP read by flow cytometry
[3] = target: HER3 (Erb-B2 Receptor Tyrosine Kinase 3) (human) (UniProt P21860); assay: immunoprecipitation with anti-HER3 antibody from T47D cells expressing wtCCDC170 or E2-E10, immunoblot (FIG. 7A)
[4] = target: HER3 (Erb-B2 Receptor Tyrosine Kinase 3) (human) (UniProt P21860); assay: co-immunoprecipitation with anti-HER3 antibody from T47D cells expressing E2-E10, western blot with anti-CCDC170 antibody

Row | binding [1] | binding [2] | binding [3] | binding [4] | Binder
1 | binds | binds |  |  | Yn-E2-E10 (E2-E10 ORF fused to an N-terminal fragment of YFP) (protein, not shown: large carriers) IKTLEQTKAIEDLNKSRDQLEKMKEKAEKKLMSVKSELDTTEHEAKENKERARNMIEVVTSEMKTLKKSLEEAEKREKQLADFREVVSQMLGLNVTSLALPDYEIIKCLERLVHSHQHHFVTCACLKDVTTGQERHPQGHLQLLH
2 |  |  | binds | binds | ΔCCDC170 protein encoded by the E2-E10 ESR1-CCDC170 fusion variant (protein) IKTLEQTKAIEDLNKSRDQLEKMKEKAEKKLMSVKSELDTTEHEAKENKERARNMIEVVTSEMKTLKKSLEEAEKREKQLADFREVVSQMLGLNVTSLALPDYEIIKCLERLVHSHQHHFVTCACLKDVTTGQERHPQGHLQLLH
